# Measurements published in PubChem BioAssay.
# Chains of the proteins cited; added tags and fusions are not shown. Lines headed by an entry give the natural chain unless they say otherwise; changes in a name come on top.
# UniProt Q9H2X9: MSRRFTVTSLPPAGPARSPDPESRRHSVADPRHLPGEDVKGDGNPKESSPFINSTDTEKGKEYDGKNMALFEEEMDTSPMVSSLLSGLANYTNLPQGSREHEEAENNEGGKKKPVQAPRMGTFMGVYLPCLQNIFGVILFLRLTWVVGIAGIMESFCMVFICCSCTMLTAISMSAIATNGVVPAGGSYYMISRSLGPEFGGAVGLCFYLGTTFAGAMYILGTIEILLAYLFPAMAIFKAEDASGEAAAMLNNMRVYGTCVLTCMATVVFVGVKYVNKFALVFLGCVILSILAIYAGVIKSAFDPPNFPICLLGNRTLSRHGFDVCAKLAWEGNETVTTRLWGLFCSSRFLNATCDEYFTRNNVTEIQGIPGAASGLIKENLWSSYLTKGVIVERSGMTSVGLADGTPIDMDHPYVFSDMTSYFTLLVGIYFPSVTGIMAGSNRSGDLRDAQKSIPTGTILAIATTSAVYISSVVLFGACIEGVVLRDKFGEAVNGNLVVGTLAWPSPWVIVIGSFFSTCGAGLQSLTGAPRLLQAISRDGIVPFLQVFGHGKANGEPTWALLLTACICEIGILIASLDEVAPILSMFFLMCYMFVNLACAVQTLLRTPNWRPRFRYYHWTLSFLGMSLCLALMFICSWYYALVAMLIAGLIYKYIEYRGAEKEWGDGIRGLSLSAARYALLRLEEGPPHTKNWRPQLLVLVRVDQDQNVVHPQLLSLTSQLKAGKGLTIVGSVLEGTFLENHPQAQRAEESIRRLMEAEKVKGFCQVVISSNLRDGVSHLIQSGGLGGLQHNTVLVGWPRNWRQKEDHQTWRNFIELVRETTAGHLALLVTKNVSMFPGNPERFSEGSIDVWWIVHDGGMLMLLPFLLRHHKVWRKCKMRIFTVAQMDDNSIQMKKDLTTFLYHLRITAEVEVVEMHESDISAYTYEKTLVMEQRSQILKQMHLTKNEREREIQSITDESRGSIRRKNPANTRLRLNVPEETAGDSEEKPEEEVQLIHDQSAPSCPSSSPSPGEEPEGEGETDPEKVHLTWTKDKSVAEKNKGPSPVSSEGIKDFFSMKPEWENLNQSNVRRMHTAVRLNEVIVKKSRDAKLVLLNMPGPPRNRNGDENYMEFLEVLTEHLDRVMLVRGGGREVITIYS
# Inconclusive means that the source gave no clear call. Such entries were picked first, then a sample of the others. The source made the active and inactive calls.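 Rule for the calls: active = thallium flux slope above the same plate's solvent-only control mean plus 3 SD; inconclusive = the two replicate wells disagree; inactive = no significant difference from solvent-only control wells.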
# Molecular target: Solute carrier family 12 member 5 (Homo sapiens) (UniProt Q9H2X9)
# Assay: retest of KCC2 transport modulators without sodium – cell-based, HEK293 KCC2, thallium flux, secondary assay, confirmation (AID 1713)
# Details: FluoZin2 fluorescence, at 10 µM, active compounds read high
# Method in brief: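 Evaluation: F/F0 slope over 10–20 s post-thallium, baseline-normalized / Material: KCC2-expressing HEK cells / Detection: FluoZin2 fluorescence, 480/540 nm, 1 Hz / Times: 48 min dye loading / Medium: Sodium-free N-methylglucamine chloride buffer / Compound: 10 µM single dose, 0.1% DMSO / Control set: bumetanide and DMSO controls / Probe or stimulus: thallium sulfate stimulus buffer at pH 7.3 / Repeats: duplicates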
row,Structure (SMILES),normalised thallium flux (F/F0 slope)
1,C/C(Cl)=C\Cn1c(O)c(N=NC(N)=S)c2ccccc21,inconclusive: 0.00962
2,Fc1ccc(NC(=S)Nc2nccs2)cc1,active: 0.03
3,Cc1cc(NC(=O)c2cccc(S(=O)(=O)N3CC(c4ccccc4)CC3=O)c2)no1 (centres undefined),inconclusive: 0.00437
4,COc1cccc(NC(=S)N/N=C2\CC3CCC2(C)C3(C)C)c1 (centres undefined),inactive: 0.00789
5,COc1ccc(NC(=S)N/C(=N/S(=O)(=O)c2ccc(C)cc2)c2ccccc2)cc1,inconclusive: 0.0119
6,O=C1COc2ccc(C(=O)CSc3nc4ccccc4c(=O)n3-c3ccc(Cl)c(Cl)c3)cc2N1,inconclusive: 0.0118
7,O=C(Cc1coc(-c2ccc(F)cc2)n1)Nc1ccccc1,inactive: 0.0105
8,CCc1ccc(S(=O)(=O)NC(=S)NC2CCCCC2)cc1,active: 0.0256
9,O=C1OCCC1Sc1nc2ccccc2c(=O)n1Cc1ccc(F)cc1 (centres undefined),active: 0.0248
10,CC(=O)c1c(N2CCOCC2)[nH]c(-c2ccccc2)nc1=S,active: 0.0169
11,O=C(CSc1nnc(Cc2ccccc2)o1)N1CCCc2ccccc21,inactive: 0.00562
12,Fc1ccc(NC(=S)Nc2cc(Cl)ccc2Cl)cc1,inactive: 0.00799
13,Cc1ccc(C(=O)NC(=S)Nc2ccccc2C)cc1,inconclusive: 0.00879
14,CCOc1cccc2sc(NC(=O)c3ccc(Br)s3)nc12,inconclusive: 0.00885
15,CCOC(=O)N1CCN(C(=S)NC(=O)c2c(-c3c(Cl)cccc3Cl)noc2C)CC1,inconclusive: 0.00821
16,S=c1[nH]c(-c2ccccc2)cn1/N=C/c1ccccc1Br,inconclusive: 0.00893
17,CCCN1C(=O)/C(=C/c2ccc(C)o2)NC1=S,active: 0.0216
18,S=c1[nH]nc(C2CCCCC2)n1/N=C/c1cccs1,active: 0.0131
19,Cc1sc2nc(C3CC3)nc(SCC(=O)N3CCCc4ccccc43)c2c1C,inactive: 0.0105
20,O=C(O)c1cccc(NC(=S)NC(=O)c2ccc(-c3ccccc3)cc2)c1,inconclusive: 0.00461

row,Structure (SMILES),normalised thallium flux (F/F0 slope)
1,Nn1c(COc2ccc(Cl)cc2)n[nH]c1=S,inactive: 0.00966
2,COc1ccc(C(=O)NC(=S)NNC(=O)COc2ccccc2)cc1,active: 0.0226
3,O=C(NC(=S)Nc1ccc2c(c1)OCO2)c1ccc(Cl)cc1,inactive: 0.00934
4,c1ccc(CSC2=NNC(c3ccccn3)S2)cc1 (centres undefined),inconclusive: 0.0197
5,N#Cc1c(-c2ccccc2)nc(SCc2nc(N)nc(N3CCCCC3)n2)[nH]c1=O,inconclusive: 0.00463
6,O=S(=O)(NCc1csc(-c2ccccc2)n1)c1ccc(Cl)s1,inactive: 0.00509
7,CCn1c(SCC(=O)N2CCN(c3ccccc3)CC2)nc2c(c1=O)SC(C)C2 (centres undefined),inactive: 0.00494
8,N#Cc1nc(Cc2cccc3ccccc23)oc1NCC1CCCO1 (centres undefined),inactive: 0.01
9,Cc1[nH]c(=S)sc1Cc1ccc(Cl)c(Cl)c1,inconclusive: 0.0116
10,O=C(Cn1cnc2c(nnn2Cc2ccc(F)cc2)c1=O)N1CCN(c2ccccc2)CC1,inactive: 0.00683
11,COc1ccc(-c2cc(C)nc(SCc3cccc(C(=O)O)c3)n2)cc1,inactive: 0.0105
12,CCOC(=O)SC1=N/C(=C\c2ccc(N(C)C)cc2)C(=O)S1,active: 0.017
13,O=C(Nc1nnc(C2=COCCO2)o1)c1ccc(Cc2ccccc2)cc1,inactive: 0.00666
14,Clc1c(Cl)c(Cl)c2n[nH]nc2c1Cl,inconclusive: 0.00502
15,O=C(NC(=S)Nc1ccccc1N1CCCCC1)c1cccs1,inconclusive: 0.0121
16,O=C(COc1ccc([N+](=O)[O-])cc1)NNC(=S)NC(=O)c1ccc(Br)cc1,inconclusive: 0.0124
17,Cc1[nH]n(-c2ccccc2)c(=O)c1N=Nc1ccccc1C(=O)N1CCCCC1,inconclusive: 0.0119
18,CCc1nn(C(C)C(=O)N2CCc3ccccc3C2)c(=O)c2cc3occc3n12 (centres undefined),inconclusive: 0.00485
19,Cc1ccccc1OCC(=O)N=Nc1c(O)n(C)c2ccccc12,inconclusive: 0.00886
